Measurements as given in publication PMC5752956.

Target: EGFP-tagged Merkel cell polyomavirus small tumor antigen (EGFP-ST) (Merkel cell polyomavirus)
Test: co-IP; lysates of HEK-293 cells transfected for 24 h with EGFP-tagged ST constructs incubated with GFP-TRAP agarose beads; pulldowns immunoblotted with PP2A Aβ- and PP4C-specific antibodies (endogenous proteins)

B1: catalytic subunit of protein phosphatase 4 (PP4C) (enzyme, UniProt P60510 1-307)
chain: MAEISDLDRQIEQLRRCELIKESEVKALCAKAREILVEESNVQRVDSPVTVCGDIHGQFYDLKELFRVGGDVPETNYLFMGDFVDRGFYSVETFLLLLALKVRYPDRITLIRGNHESRQITQVYGFYDECLRKYGSVTVWRYCTEIFDYLSLSAIIDGKIFCVHGGLSPSIQTLDQIRTIDRKQEVPHDGPMCDLLWSDPEDTTGWGVSPRGAGYLFGSDVVAQFNAANDIDMICRAHQLVMEGYKWHFNETVLTVWSAPNYCYRCGNVAAILELDEHLQKDFIIFEAAPQETRGIPSKKPVADYFL
B1 was tested, and the binding was “binds”.

Results are given in words; binding and its absence hold for the method and conditions named. Binding seen in cells or lysates may run through a third protein. Binding can be weak; no strength is given.
